No constants are given. Whether binding was seen depends on the method and setting. In cells and extracts the contact can be indirect. Some results given as binding are weak or reduced against the parent protein; the word gives no strength.

The chains behind the UniProt entries cited, without tags or fusion partners. Residues count along the entry.
UniProt Q00610, residues 2-1675: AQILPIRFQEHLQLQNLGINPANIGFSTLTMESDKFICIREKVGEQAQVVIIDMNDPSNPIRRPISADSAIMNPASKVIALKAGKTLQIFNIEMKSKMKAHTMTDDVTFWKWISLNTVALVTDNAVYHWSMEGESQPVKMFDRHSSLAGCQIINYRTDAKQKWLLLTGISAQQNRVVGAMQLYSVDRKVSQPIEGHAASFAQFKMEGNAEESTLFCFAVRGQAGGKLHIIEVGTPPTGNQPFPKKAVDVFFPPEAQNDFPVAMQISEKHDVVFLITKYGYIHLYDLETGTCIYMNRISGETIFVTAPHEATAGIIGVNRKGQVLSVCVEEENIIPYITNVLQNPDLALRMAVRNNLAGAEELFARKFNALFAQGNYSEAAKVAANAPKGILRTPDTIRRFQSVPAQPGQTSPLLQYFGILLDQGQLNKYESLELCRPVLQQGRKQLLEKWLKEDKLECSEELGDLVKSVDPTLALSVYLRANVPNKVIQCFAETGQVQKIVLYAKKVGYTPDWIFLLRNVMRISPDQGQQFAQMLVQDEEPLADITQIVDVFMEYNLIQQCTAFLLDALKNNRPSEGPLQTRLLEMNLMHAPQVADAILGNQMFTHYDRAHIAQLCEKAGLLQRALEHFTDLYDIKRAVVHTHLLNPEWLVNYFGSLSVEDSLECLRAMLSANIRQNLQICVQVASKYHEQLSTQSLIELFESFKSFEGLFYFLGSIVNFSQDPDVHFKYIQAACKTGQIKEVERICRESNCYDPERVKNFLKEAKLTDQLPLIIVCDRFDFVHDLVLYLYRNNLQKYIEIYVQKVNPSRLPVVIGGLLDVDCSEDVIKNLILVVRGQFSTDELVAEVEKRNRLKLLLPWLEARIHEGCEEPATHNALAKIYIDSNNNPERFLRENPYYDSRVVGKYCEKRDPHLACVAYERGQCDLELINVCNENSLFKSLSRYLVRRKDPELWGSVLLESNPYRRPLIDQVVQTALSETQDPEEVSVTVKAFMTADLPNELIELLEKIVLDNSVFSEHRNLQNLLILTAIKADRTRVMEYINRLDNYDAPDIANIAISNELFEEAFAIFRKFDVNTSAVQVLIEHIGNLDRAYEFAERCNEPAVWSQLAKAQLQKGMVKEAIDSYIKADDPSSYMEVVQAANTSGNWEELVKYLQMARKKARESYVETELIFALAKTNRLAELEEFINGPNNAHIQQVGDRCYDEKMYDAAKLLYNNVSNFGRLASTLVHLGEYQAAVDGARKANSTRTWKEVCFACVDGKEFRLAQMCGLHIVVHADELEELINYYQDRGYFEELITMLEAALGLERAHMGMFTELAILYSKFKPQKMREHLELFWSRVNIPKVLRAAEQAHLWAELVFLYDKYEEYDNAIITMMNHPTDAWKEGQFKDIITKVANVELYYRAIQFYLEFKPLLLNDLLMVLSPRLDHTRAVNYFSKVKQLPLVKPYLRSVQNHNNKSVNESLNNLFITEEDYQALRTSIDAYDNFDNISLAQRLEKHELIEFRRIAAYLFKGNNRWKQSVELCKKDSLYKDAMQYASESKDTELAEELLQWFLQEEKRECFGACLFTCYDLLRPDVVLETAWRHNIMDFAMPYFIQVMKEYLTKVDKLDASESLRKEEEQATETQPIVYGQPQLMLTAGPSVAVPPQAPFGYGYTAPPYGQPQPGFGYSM

One substance from patent EP2420830B1 can be followed below.

The target of the experiment is clathrin (from HeLa cell lysate) (human (HeLa cells)) (UniProt Q00610). Put plainly: GST pull-down from HeLa cell lysate, immunoblot.

In the case of “GST fusion protein of the CIC-4 amino-terminal domain (CIC-4-NT, human aa 1-67) (from UniProt P08515 1-218; P51793 1-67)”, the binding entry was “binds”.
